These are yes or no findings as the source states them, for the method shown. Binding can be weak; no strength is given.
Legend:
Test in all cases: two-hybrid
[1] = molecular target: T1, Drosophila eIF4E transporter (4E-T) (Drosophila melanogaster) (UniProt Q8IH18)
T1 sequence: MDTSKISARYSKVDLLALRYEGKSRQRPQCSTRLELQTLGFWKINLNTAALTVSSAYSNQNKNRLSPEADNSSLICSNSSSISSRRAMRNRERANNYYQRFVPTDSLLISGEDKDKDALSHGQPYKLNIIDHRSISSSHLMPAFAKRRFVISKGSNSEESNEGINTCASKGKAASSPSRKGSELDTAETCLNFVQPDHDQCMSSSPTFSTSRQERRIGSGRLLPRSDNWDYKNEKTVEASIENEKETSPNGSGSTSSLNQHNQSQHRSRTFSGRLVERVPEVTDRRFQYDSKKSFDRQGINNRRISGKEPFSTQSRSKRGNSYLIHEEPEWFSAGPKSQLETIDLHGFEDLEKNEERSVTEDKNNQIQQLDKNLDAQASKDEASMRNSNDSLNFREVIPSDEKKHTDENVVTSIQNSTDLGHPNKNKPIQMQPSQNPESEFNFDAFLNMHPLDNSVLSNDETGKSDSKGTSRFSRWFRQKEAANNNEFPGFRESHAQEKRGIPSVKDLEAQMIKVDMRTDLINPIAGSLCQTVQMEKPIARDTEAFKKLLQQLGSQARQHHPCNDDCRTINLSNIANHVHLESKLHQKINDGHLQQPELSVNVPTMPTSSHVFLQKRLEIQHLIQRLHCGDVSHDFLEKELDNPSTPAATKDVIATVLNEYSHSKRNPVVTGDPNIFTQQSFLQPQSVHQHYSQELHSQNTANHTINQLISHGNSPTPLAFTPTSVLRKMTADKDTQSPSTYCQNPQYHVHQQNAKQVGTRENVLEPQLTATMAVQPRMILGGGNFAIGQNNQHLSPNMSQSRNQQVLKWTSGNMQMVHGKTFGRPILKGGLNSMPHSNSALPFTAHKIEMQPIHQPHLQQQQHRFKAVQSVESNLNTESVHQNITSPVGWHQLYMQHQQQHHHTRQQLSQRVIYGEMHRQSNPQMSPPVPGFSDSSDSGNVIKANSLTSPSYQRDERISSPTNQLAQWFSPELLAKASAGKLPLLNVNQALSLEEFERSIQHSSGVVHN

[2] = molecular target: T2, Drosophila 4E-BP (Drosophila melanogaster) (UniProt Q9XZ56)
T2 sequence: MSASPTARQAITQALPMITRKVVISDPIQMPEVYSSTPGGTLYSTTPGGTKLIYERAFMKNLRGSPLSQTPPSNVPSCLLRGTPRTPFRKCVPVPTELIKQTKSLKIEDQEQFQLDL

[3] = molecular target: Drosophila eIF4G-2 (313-1164) (Drosophila melanogaster) (UniProt Q9VCH1)
[4] = molecular target: T3, Drosophila Cup (Drosophila melanogaster) (UniProt Q9VMA3)
T3 sequence: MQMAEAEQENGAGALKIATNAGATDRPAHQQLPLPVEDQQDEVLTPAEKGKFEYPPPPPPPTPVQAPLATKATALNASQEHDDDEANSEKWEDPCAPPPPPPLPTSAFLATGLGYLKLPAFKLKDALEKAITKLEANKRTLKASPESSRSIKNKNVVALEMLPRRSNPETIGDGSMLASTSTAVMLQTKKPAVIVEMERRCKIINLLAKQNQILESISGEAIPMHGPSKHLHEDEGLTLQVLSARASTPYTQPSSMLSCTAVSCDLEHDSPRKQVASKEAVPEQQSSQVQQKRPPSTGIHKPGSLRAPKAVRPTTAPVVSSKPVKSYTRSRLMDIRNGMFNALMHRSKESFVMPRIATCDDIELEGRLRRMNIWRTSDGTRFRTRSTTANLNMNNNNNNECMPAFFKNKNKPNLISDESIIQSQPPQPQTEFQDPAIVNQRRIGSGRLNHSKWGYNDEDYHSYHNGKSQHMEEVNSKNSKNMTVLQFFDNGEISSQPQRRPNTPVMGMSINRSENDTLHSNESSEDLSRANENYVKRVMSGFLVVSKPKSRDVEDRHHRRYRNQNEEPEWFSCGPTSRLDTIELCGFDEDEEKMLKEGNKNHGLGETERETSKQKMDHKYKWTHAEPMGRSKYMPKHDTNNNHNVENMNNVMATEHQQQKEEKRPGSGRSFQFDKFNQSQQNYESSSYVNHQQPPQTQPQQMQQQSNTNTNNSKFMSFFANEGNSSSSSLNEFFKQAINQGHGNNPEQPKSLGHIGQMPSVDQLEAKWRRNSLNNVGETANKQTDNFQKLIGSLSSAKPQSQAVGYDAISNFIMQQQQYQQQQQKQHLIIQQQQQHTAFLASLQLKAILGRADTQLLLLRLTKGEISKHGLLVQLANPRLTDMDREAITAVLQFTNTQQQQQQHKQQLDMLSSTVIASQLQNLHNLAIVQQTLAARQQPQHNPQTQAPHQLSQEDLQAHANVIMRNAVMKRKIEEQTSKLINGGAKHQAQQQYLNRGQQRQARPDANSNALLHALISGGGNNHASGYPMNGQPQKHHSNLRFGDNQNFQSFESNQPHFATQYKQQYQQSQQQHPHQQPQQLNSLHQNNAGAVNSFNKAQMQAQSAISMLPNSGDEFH

Measured: binding

Drosophila eIF4E-5 (from UniProt Q9VSB6)
binds: [1] | [2] | [3] | [4]

From paper doi:10.1101/2021.12.19.473358
